Measured data: PubChem BioAssay AID1259424 (University of Nebraska Medical Center, 2018)
Here is an unselected part of about 14,000 deposited reagents. 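Higher correlation or smaller distance means closer resemblance to KSR1 loss; control wells, including KSR1 knockdowns, recur on many plates.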 Not all columns of the deposit are shown. Not given: the time to read-out.

Purpose: 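Rank knockdowns across the genome by resemblance to the KSR1 depletion profile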 (primary screen)
System: human HCT116 colon cancer cells
Reagent: siRNA pool against human genes, 50 nM
Detection: 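Six signature mRNAs by branched-DNA multiplex assay, scaled to two housekeeping genes and non-targeting median, log2; matched to mean KSR1 knockdown profile by Pearson correlation and euclidean distance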
Direction: mean correlation with KSR1 profile and KSR1 correlation: higher = expression change more like KSR1 knockdown; mean distance from KSR1 profile: higher = expression change less like KSR1 knockdown

| Target gene | mean correlation with KSR1 profile | mean distance from KSR1 profile | KSR1 correlation, replicate 1 | KSR1 correlation, replicate 2 |
| --- | --- | --- | --- | --- |
| RHOA | -0.132 | 1.75 | -0.277 | -0.114 |
| RFFL | -0.697 | 1.81 | -0.595 | -0.684 |
| CDC25A | 0.155 | 0.974 | 0.0957 | 0.38 |
| CUBN | -0.142 | 1.61 | 0.176 | -0.454 |
| BRCC3 | 0.173 | 2.2 | 0.313 | 0.0385 |
| TTC12 | -0.463 | 1.66 | -0.233 | -0.504 |
| SLITRK5 | -0.356 | 2.54 | -0.117 | -0.448 |
| UBR4 | 0.615 | 0.71 | 0.701 | 0.584 |
| DCPS | 0.0501 | 1.87 | -0.0455 | -0.202 |
| HPCAL1 | 0.777 | 0.779 | 0.643 | 0.736 |
| ZNF234 | -0.296 | 1.5 | -0.358 | -0.246 |
| MKRN3 | 0.26 | 2.7 | 0.0764 | 0.67 |
| MYCT1 | 0.413 | 2.5 | 0.304 | 0.341 |
| NAE1 | -0.245 | 2.61 | 0.025 | -0.598 |
| NKX3-2 | 0.714 | 1.62 | 0.505 | 0.672 |
| PFDN4 | 0.355 | 1.23 | 0.619 | 0.492 |
| SLC38A1 | 0.58 | 1.35 | 0.277 | 0.456 |
| SPIN2A | -0.276 | 3.45 | -0.165 | -0.33 |
| SART1 | 0.276 | 2.57 | 0.261 | 0.18 |
| TMSB4X | 0.382 | 4.51 | 0.442 | 0.495 |
| LRP4 | 0.46 | 1.86 | 0.432 | 0.341 |
| WNT3 | -0.216 | 1.72 | -0.122 | -0.251 |
| GDNF | 0.128 | 1.33 | 0.11 | 0.0866 |
| RBMS2 | 0.325 | 1.34 | 0.148 | -0.524 |
| WNT4 | 0.367 | 2.13 | 0.181 | 0.21 |
| ADGRF4 | 0.457 | 1.5 | 0.274 | 0.474 |
| TOR1B | -0.376 | 2.29 | -0.393 | -0.546 |
| C1orf56 | 0.553 | 1.45 | 0.561 | 0.381 |
| SETDB2 | 0.384 | 2.12 | 0.197 | 0.264 |
| WNT1 | -0.186 | 1.58 | -0.318 | -0.17 |
| EFR3A | 0 | 2.72 | 0.0726 | 0.0168 |

Next part (6 carried over from the part before).
| Target gene | mean correlation with KSR1 profile | mean distance from KSR1 profile | KSR1 correlation, replicate 1 | KSR1 correlation, replicate 2 |
| --- | --- | --- | --- | --- |
| ADGRF4 | 0.457 | 1.5 | 0.274 | 0.474 |
| TOR1B | -0.376 | 2.29 | -0.393 | -0.546 |
| C1orf56 | 0.553 | 1.45 | 0.561 | 0.381 |
| SETDB2 | 0.384 | 2.12 | 0.197 | 0.264 |
| WNT1 | -0.186 | 1.58 | -0.318 | -0.17 |
| EFR3A | 0 | 2.72 | 0.0726 | 0.0168 |
| PLAGL2 | -0.393 | 3.35 | -0.467 | 0.452 |
| FZD2 | 0.498 | 1.71 | 0.478 | 0.581 |
| ECM2 | -0.107 | 1.65 | -0.0461 | -0.0762 |
| PTPN12 | -0.25 | 2.25 | -0.362 | -0.355 |
| GLI3 | 0.382 | 1.55 | 0.606 | 0.477 |
| CD81 | -0.255 | 3.04 | -0.225 | -0.307 |
| CDH19 | 0.875 | 0.586 | 0.896 | 0.567 |
| RBM25 | -0.601 | 5.63 | -0.482 | -0.578 |
| FUT5 | -0.184 | 1.64 | -0.235 | -0.394 |
| EDEM3 | -0.272 | 1.4 | -0.468 | -0.0631 |
| FSCN2 | 0.736 | 1.11 | 0.912 | 0.872 |
| HMG20A | 0.428 | 2.18 | 0.486 | 0.596 |
| H2AP | -0.319 | 1.27 | 0.096 | -0.575 |
| CD3D | 0.0561 | 1.79 | 0.166 | 0.0815 |
| SMS | -0.167 | 1.74 | -0.202 | -0.264 |
| PARP14 | -0.245 | 2.24 | -0.223 | -0.419 |
| DDX24 | -0.143 | 4.95 | 0.0355 | -0.225 |
| ANAPC11 | -0.702 | 3.52 | -0.668 | -0.747 |
| MFHAS1 | 0.779 | 1.84 | 0.855 | 0.586 |
